This assay deals with T1, endogenous Annexin-A1 (ANXA1) of primary cultured mouse neurons (mouse (endogenous in primary cultured neurons)) (UniProt P10107).
T1 sequence: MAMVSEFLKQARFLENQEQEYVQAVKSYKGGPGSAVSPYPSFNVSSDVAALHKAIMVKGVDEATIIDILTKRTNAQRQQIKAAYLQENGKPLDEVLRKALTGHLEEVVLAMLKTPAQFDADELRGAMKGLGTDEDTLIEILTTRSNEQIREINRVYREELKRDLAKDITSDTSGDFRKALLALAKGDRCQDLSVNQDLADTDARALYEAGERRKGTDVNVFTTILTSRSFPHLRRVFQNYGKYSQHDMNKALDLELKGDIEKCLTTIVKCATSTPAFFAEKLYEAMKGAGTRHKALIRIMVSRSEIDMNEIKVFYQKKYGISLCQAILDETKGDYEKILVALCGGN
The assay is described as follows: co-IP; endogenous proteins in whole-cell lysates of primary cultured mouse neurons, with or without OGD/R; in some panels neurons infected with adenovirus for SENP6-WT, SENP6-C1030S, SENP6 shRNA or controls; immunoprecipitation with anti-SENP6 or anti-ANXA1, protein A/G agarose, immunoblot. On the technique in general: In western blotting, separated proteins are transferred to a membrane and probed.

Results are given in words; binding and its absence hold for the method and conditions named. In cells and extracts the contact can be indirect. A result given as binding can be weak or reduced; the word gives no strength.

Regarding “endogenous PKC kinase of primary cultured mouse neurons (enzyme)”, the binding result is given as “binds”.
